Measurements from PubChem BioAssay AID192 (DTP/NCI, 2004).
The list is a part of this screen's results and no random one: its compounds were picked by chemical class. Other doses and runs of a compound may be missing. T/C: endpoint of the treated group in % of that of the vehicle group. Where survival is the endpoint, the PubChem record calls one and a half times the control and up active, and a quarter to a half above the control has no call in these data; cut-offs in other NCI protocols can differ. Some T/C values are marked as having no survivor count here; that says nothing about deaths at the dose. Schedules are NCI's codes, read here as Q, the interval in days (D) or hours (H), X, the number of doses. Counts like (3×) count equal records among those shown. Some doses were run more than once; the results are listed from low to high.

Tested on: BDF1 mice, B16 melanoma ip, median survival T/C
Test: NCI In Vivo Anticancer Drug Screen. Data for tumor model B16 Melanoma (intraperitoneal) in B6D2F1 (BDF1) mice
Settings: T/C endpoint: median survival time, higher T/C = longer survival
Procedure: The antitumor activity of compounds was measured in mice bearing transplantable tumors. Survival or tumor size were measured and the results are expressed as the measurement made in the treated group (T) divided by the measurement made in the vehicle treated control group (C). The tumor model used in this assay is B16 Melanoma (intraperitoneal) in B6D2F1 (BDF1) mice

[1] = dose: 0.75 mg/kg/injection, schedule: Q01DX009 (ip), vehicle: saline
[2] = dose: 1.5 mg/kg/injection, schedule: Q01DX009 (ip), vehicle: saline
[3] = dose: 12.5 mg/kg/injection, schedule: Q01DX009 (ip), vehicle: saline
[4] = dose: 25.0 mg/kg/injection, schedule: Q01DX009 (ip), vehicle: saline
[5] = dose: 50.0 mg/kg/injection, schedule: Q01DX009 (ip), vehicle: saline
[6] = dose: 100.0 mg/kg/injection, schedule: Q01DX009 (ip), vehicle: saline
[7] = dose: 200.0 mg/kg/injection, schedule: Q01DX009 (ip), vehicle: saline
[8] = dose: 6.25 mg/kg/injection, schedule: Q01DX009 (ip), vehicle: saline

`Cc1cc(C)cc(CN(CCCl)CCCl)c1` was tested, and the T/C (dose: 0.5 mg/kg/injection, schedule: Q01DX009 (ip), vehicle: saline) was 93 % of control [survivor count not shown], the T/C [1] was 131 % of control [survivor count not shown] and the T/C (dose: 1.0 mg/kg/injection, schedule: Q01DX009 (ip), vehicle: saline) was 95 % of control [survivor count not shown]. For the same molecule, the T/C [2] was 155 % of control [survivor count not shown], the T/C (dose: 2.0 mg/kg/injection, schedule: Q01DX009 (ip), vehicle: saline) was 119 % of control [survivor count not shown] and the T/C (dose: 3.13 mg/kg/injection, schedule: Q01DX009 (ip), vehicle: saline with Tween-80) was 150 % of control [survivor count not shown]. The T/C (dose: 3.13 mg/kg/injection, schedule: Q04DX003 (ip), vehicle: saline) was 113 % of control [survivor count not shown], the T/C (dose: 4.0 mg/kg/injection, schedule: Q01DX009 (ip), vehicle: saline) was 152 % of control [survivor count not shown] and the T/C (dose: 6.0 mg/kg/injection, schedule: Q01DX009 (ip), vehicle: saline) was 134 [survivor count not shown] and 176 % of control [survivor count not shown]. The T/C (dose: 6.25 mg/kg/injection, schedule: Q01DX009 (ip), vehicle: saline with Tween-80) was 167 % of control [survivor count not shown], the T/C (dose: 6.25 mg/kg/injection, schedule: Q04DX003 (ip), vehicle: saline) was 118 % of control [survivor count not shown] and the T/C (dose: 9.0 mg/kg/injection, schedule: Q01DX009 (ip), vehicle: saline) was 178 % of control [survivor count not shown]. For the same molecule, the T/C (dose: 12.5 mg/kg/injection, schedule: Q04DX003 (ip), vehicle: saline) was 136 % of control [survivor count not shown].

For `CC(OC(=O)C(O)(c1ccccc1)c1ccccc1)C1CCCCN1C` (stereo unspecified), the T/C (dose: 0.19 mg/kg/injection, schedule: Q01DX009 (ip), vehicle: Klucel (hydroxypropylcellulose) (HPC)) was 100 % of control [survivor count not shown], the T/C (dose: 0.39 mg/kg/injection, schedule: Q01DX009 (ip), vehicle: Klucel (hydroxypropylcellulose) (HPC)) was 105 % of control [survivor count not shown] and the T/C (dose: 0.78 mg/kg/injection, schedule: Q01DX009 (ip), vehicle: Klucel (hydroxypropylcellulose) (HPC)) was 94 % of control [survivor count not shown]. For the same molecule, the T/C (dose: 1.56 mg/kg/injection, schedule: Q01DX009 (ip), vehicle: Klucel (hydroxypropylcellulose) (HPC)) was 104 % of control [survivor count not shown] and the T/C (dose: 3.12 mg/kg/injection, schedule: Q01DX009 (ip), vehicle: Klucel (hydroxypropylcellulose) (HPC)) was 122 % of control [survivor count not shown].

With `CN1CCC(OC(=O)C(O)(c2ccccc2)C2CCCC2)C1` (stereo unspecified) the T/C [3] was 107 % of control [survivor count not shown], the T/C [4] was 100 % of control [survivor count not shown] and the T/C [5] was 100 % of control [survivor count not shown]. For the same molecule, the T/C [6] was 105 % of control [survivor count not shown] and the T/C [7] was 91 % of control [survivor count not shown].

For `CN1CCCC(OC(=O)C(O)(c2ccccc2)C2CCCCC2)C1` (stereo unspecified), the T/C [8] was 102 % of control [survivor count not shown], the T/C [3] was 105 % of control [survivor count not shown] and the T/C [4] was 113 % of control [survivor count not shown].

In the case of `CN1CCN(NCCN2CCCC(OC(=O)C(O)(c3ccccc3)c3ccccc3)C2)CC1` (stereo unspecified), the T/C [3] is reported as 104 % of control [survivor count not shown], the T/C [4] is reported as 99 % of control [survivor count not shown] and the T/C [5] is reported as 96 % of control [survivor count not shown]. The T/C [6] was 95 % of control [survivor count not shown] and the T/C [7] was 100 % of control [survivor count not shown].

With `ClCCNCCBr` the T/C (dose: 1.25 mg/kg/injection, schedule: Q01DX009 (ip), vehicle: saline) was 100 [survivor count not shown], 111 [survivor count not shown], 115 % of control [survivor count not shown], the T/C (dose: 2.5 mg/kg/injection, schedule: Q01DX009 (ip), vehicle: saline) was 113 [survivor count not shown], 121 [survivor count not shown], 127 % of control [survivor count not shown] and the T/C (dose: 2.5 mg/kg/injection, schedule: Q04DX003 (ip), vehicle: saline) was 106 % of control [survivor count not shown]. The T/C (dose: 3.3 mg/kg/injection, schedule: Q01DX009 (ip), vehicle: saline) was 116 % of control [survivor count not shown], the T/C (dose: 5.0 mg/kg/injection, schedule: Q01DX009 (ip), vehicle: saline) was 124 [survivor count not shown], 136 [survivor count not shown], 139 % of control [survivor count not shown] and the T/C (dose: 5.0 mg/kg/injection, schedule: Q04DX003 (ip), vehicle: saline) was 108 % of control [survivor count not shown]. The T/C (dose: 7.5 mg/kg/injection, schedule: Q01DX009 (ip), vehicle: saline) was 122 % of control [survivor count not shown], the T/C (dose: 10.0 mg/kg/injection, schedule: Q04DX003 (ip), vehicle: saline) was 106 % of control [survivor count not shown] and the T/C (dose: 20.0 mg/kg/injection, schedule: Q04DX003 (ip), vehicle: saline) was 120 % of control [survivor count not shown].

In the case of `ClCCN(CCCl)C12CC3CC(CC(C3)C1)C2`, the T/C (dose: 0.12 mg/kg/injection, schedule: Q01DX009 (ip), vehicle: saline with Tween-80) is reported as 98 % of control [survivor count not shown], the T/C (dose: 0.25 mg/kg/injection, schedule: Q01DX009 (ip), vehicle: saline with Tween-80) is reported as 106 % of control [survivor count not shown] and the T/C (dose: 0.5 mg/kg/injection, schedule: Q01DX009 (ip), vehicle: saline with Tween-80) is reported as 102 % of control [survivor count not shown]. For the same molecule, the T/C (dose: 1.0 mg/kg/injection, schedule: Q01DX009 (ip), vehicle: saline with Tween-80) was 128 % of control [survivor count not shown].

For `CN1CCCC(OC(=O)C(O)(c2ccccc2)C2CCCC2)C1` (stereo unspecified), the T/C (dose: 0.09 mg/kg/injection, schedule: Q01DX009 (ip), vehicle: saline) was 110 % of control [survivor count not shown], the T/C (dose: 0.19 mg/kg/injection, schedule: Q01DX009 (ip), vehicle: saline) was 117 % of control [survivor count not shown] and the T/C (dose: 0.39 mg/kg/injection, schedule: Q01DX009 (ip), vehicle: saline) was 112 % of control [survivor count not shown]. The T/C (dose: 0.78 mg/kg/injection, schedule: Q01DX009 (ip), vehicle: saline) was 112 % of control [survivor count not shown] and the T/C (dose: 1.56 mg/kg/injection, schedule: Q01DX009 (ip), vehicle: saline) was 111 % of control [survivor count not shown].

For `ClCCN1CCCC1CCl` (stereo unspecified), the T/C [1] was 116 % of control [survivor count not shown], the T/C [2] was 131 % of control [survivor count not shown] and the T/C (dose: 3.0 mg/kg/injection, schedule: Q01DX009 (ip), vehicle: saline) was 150 % of control [survivor count not shown]. For the same molecule, the T/C (dose: 375.0 micrograms/kg/injection, schedule: Q01DX009 (ip), vehicle: saline) was 97 [survivor count not shown] and 105 % of control [survivor count not shown], the T/C (dose: 750.0 micrograms/kg/injection, schedule: Q01DX009 (ip), vehicle: saline) was 107 % of control [survivor count not shown] (2×) and the T/C (dose: 1500.0 micrograms/kg/injection, schedule: Q01DX009 (ip), vehicle: saline) was 122 [survivor count not shown] and 129 % of control [survivor count not shown]. The T/C (dose: 3000.0 micrograms/kg/injection, schedule: Q01DX009 (ip), vehicle: saline) was 141 [survivor count not shown] and 148 % of control [survivor count not shown].

For `O=C(OC1CCCN(CO)C1)C(O)(c1ccccc1)c1ccccc1` (stereo unspecified), the T/C [8] was 107 % of control [survivor count not shown], the T/C [3] was 100 % of control [survivor count not shown] and the T/C [4] was 103 % of control [survivor count not shown]. For the same molecule, the T/C [5] was 100 % of control [survivor count not shown] and the T/C [6] was 98 % of control [survivor count not shown].
